{
  "source": "PubChem BioAssay AID330",
  "about": "(DTP/NCI, 2004)",
  "system": "P388 leukemia ip, CD2F1 mice, survival T/C",
  "experiment": "NCI In Vivo Anticancer Drug Screen. Data for tumor model P388 Leukemia (intraperitoneal) in CD2F1 (CDF1) mice",
  "conditions": "T/C endpoint: median survival time, higher T/C = longer survival",
  "key": {"[1]": {"conditions": "dose: 50.0 mg/kg/injection, schedule: Q01DX009 (ip), vehicle: distilled water + Tween-80"}, "[2]": {"conditions": "dose: 200.0 mg/kg/injection, schedule: Q01DX005 (ip), vehicle: Klucel (hydroxypropylcellulose) (HPC)"}},
  "note": "The list shows only some results of the screen, not a fair sample: it gathers tests that were run many times, whatever their T/C, doses with no T/C, and many T/C values between a quarter and a half above the control. Further doses and runs are listed elsewhere. T/C is the treated group as % of the vehicle group. Some doses have a count of surviving animals in place of a T/C: the source files T/C as zero there, which appears to mark a toxic dose or a test without result, not a measured value. Some survivor counts are full or nearly so, which does not show that the dose was tolerated: the source hardly ever lists a survival T/C far under the control, and the zero likely stands for such cases as well. Survivors were counted at the toxicity check, usually on the fifth day, unless a day is given; later deaths do not show. Schedules are NCI's codes, taken here to give the interval after Q, in days (D) or hours (H), and the number of doses after X. Some entries were tested several times; the results are listed from low to high. Where survival is the endpoint, the PubChem record calls one and a half times the control and up active, and a quarter to a half above the control has no call in these data; cut-offs in other NCI protocols can differ. Some T/C values carry the count of animals alive at the toxicity check (mostly the fifth day); where none is given, no animal had died by that day.",
  "data": [
    {"smiles": "Cc1cccc[c]1[Sn]([Cl])([O][Sn]([Cl])([c]1ccccc1C)[c]1ccccc1C)[c]1ccccc1C", "values": [
      {"measurement": "T/C", "setting": "dose: 0.39 mg/kg/injection, schedule: Q01DX005 (ip), vehicle: saline", "value": "133 % of control"},
      {"measurement": "T/C", "setting": "dose: 0.79 mg/kg/injection, schedule: Q01DX005 (ip), vehicle: saline", "value": "128 and 129 % of control"},
      {"measurement": "T/C", "setting": "dose: 1.56 mg/kg/injection, schedule: Q01DX005 (ip), vehicle: saline", "value": "133 % of control"},
      {"measurement": "survivor count", "setting": "dose: 3.12 mg/kg/injection, schedule: Q01DX005 (ip), vehicle: saline", "value": "1 of 6"},
      {"measurement": "survivor count", "setting": "dose: 6.25 mg/kg/injection, schedule: Q01DX005 (ip), vehicle: saline", "value": "0 of 6"},
      {"measurement": "survivor count", "setting": "dose: 12.5 mg/kg/injection, schedule: Q01DX005 (ip), vehicle: saline", "value": "0 of 6"},
      {"measurement": "survivor count", "setting": "dose: 50.0 mg/kg/injection, schedule: Q01DX005 (ip), vehicle: saline", "value": "0 of 6"},
      {"measurement": "survivor count", "setting": "dose: 100.0 mg/kg/injection, schedule: Q01DX005 (ip), vehicle: saline", "value": "0 of 6"},
      {"measurement": "survivor count", "setting": "dose: 200.0 mg/kg/injection, schedule: Q01DX005 (ip), vehicle: saline", "value": "0 of 6"}
    ]},
    {"smiles": "CNC(=O)OCc1c(COC(=O)NC)c(-c2ccc(Cl)c(Cl)c2)n(C)c1C", "values": [
      {"measurement": "T/C", "setting": "dose: 6.25 mg/kg/injection, schedule: Q01DX009 (ip), vehicle: distilled water + Tween-80", "value": "137 [5 of 6 alive] and 145 % of control"},
      {"measurement": "T/C", "setting": "dose: 12.5 mg/kg/injection, schedule: Q01DX009 (ip), vehicle: distilled water + Tween-80", "value": "138 and 148 % of control"},
      {"measurement": "T/C", "setting": "[1]", "value": "133 % of control"},
      {"measurement": "survivor count", "setting": "[1]", "value": "6 of 6"},
      {"measurement": "survivor count", "setting": "dose: 100.0 mg/kg/injection, schedule: Q01DX009 (ip), vehicle: distilled water + Tween-80", "value": "1 of 6 and 2 of 6"}
    ]},
    {"smiles": "S=C1SCCCN1c1ccccc1", "values": [
      {"measurement": "survivor count", "setting": "dose: 400.0 mg/kg/injection, schedule: Q04DX003 (ip), vehicle: Klucel (hydroxypropylcellulose) (HPC)", "value": "0 of 6"}
    ]},
    {"smiles": "CC(=O)[C@]1(O)Cc2c(O)c3c(c(O)c2[C@@H](OC2CC(N)C(O)C(C)O2)C1)C(=O)c1c(OCc2ccccc2)cccc1C3=O", "note": "(stereo not given in full)", "values": [
      {"measurement": "T/C", "setting": "dose: 25.0 mg/kg/injection, schedule: Q04DX003 (ip), vehicle: distilled water + Tween-80", "value": "133 % of control"},
      {"measurement": "T/C", "setting": "dose: 50.0 mg/kg/injection, schedule: Q04DX003 (ip), vehicle: distilled water + Tween-80", "value": "125 % of control [5 of 6 alive on day 9]"}
    ]},
    {"smiles": "C[C@]12CC[C@H]3[C@@H](CCC4=CC(=O)CC[C@@H]43)[C@@H]1CC[C@@H]2OC(=O)N(CCCl)N=O", "values": [
      {"measurement": "T/C", "setting": "dose: 15.0 mg/kg/injection, schedule: Q01DX009 (ip), vehicle: saline with Tween-80", "value": "134 % of control"},
      {"measurement": "T/C", "setting": "dose: 30.0 mg/kg/injection, schedule: Q01DX009 (ip), vehicle: saline with Tween-80", "value": "138 % of control"},
      {"measurement": "survivor count", "setting": "dose: 50.0 mg/kg/injection, schedule: Q01DX009 (ip), vehicle: other", "value": "3 of 6"},
      {"measurement": "survivor count", "setting": "dose: 50.0 mg/kg/injection, schedule: Q01DX009 (ip), vehicle: saline with Tween-80", "value": "6 of 6"},
      {"measurement": "T/C", "setting": "dose: 60.0 mg/kg/injection, schedule: Q01DX009 (ip), vehicle: saline with Tween-80", "value": "137 % of control"},
      {"measurement": "survivor count", "setting": "dose: 100.0 mg/kg/injection, schedule: Q01DX005 (ip), vehicle: other", "value": "1 of 6"},
      {"measurement": "survivor count", "setting": "dose: 100.0 mg/kg/injection, schedule: Q01DX009 (ip), vehicle: saline with Tween-80", "value": "6 of 6"},
      {"measurement": "T/C", "setting": "dose: 120.0 mg/kg/injection, schedule: Q04DX003 (ip), vehicle: saline", "value": "126 % of control"},
      {"measurement": "survivor count", "setting": "dose: 200.0 mg/kg/injection, schedule: Q01DX009 (ip), vehicle: saline with Tween-80", "value": "6 of 6"}
    ]},
    {"smiles": "COc1ccc(SCC(=O)c2ccc([N+](=O)[O-])o2)cc1", "values": [
      {"measurement": "survivor count", "setting": "dose: 200.0 mg/kg/injection, schedule: Q01DX009 (ip), vehicle: suspension in saline", "value": "5 of 6"}
    ]},
    {"smiles": "Clc1ccc2c(NCCCCCCNc3ccnc4cc(Cl)ccc34)ccnc2c1", "values": [
      {"measurement": "survivor count", "setting": "dose: 200.0 mg/kg/injection, schedule: Q01DX005 (ip), vehicle: saline with Tween-80", "value": "3 of 5"}
    ]},
    {"smiles": "O=C(NC(Cc1ccccc1)C(=O)O)OCc1ccccc1", "note": "(stereo not given) (tested in a mixture with another compound)", "values": [
      {"measurement": "survivor count", "setting": "dose: 50.0 mg/kg/injection, schedule: Q01DX005 (ip), vehicle: Klucel (hydroxypropylcellulose) (HPC)", "value": "1 of 6"},
      {"measurement": "survivor count", "setting": "dose: 100.0 mg/kg/injection, schedule: Q01DX005 (ip), vehicle: Klucel (hydroxypropylcellulose) (HPC)", "value": "0 of 6"},
      {"measurement": "survivor count", "setting": "[2]", "value": "0 of 6"}
    ]},
    {"smiles": "Nc1cc(Nc2cccc(Cl)c2)nc(N)n1", "values": [
      {"measurement": "survivor count", "setting": "dose: 200.0 mg/kg/injection, schedule: Q04DX003 (ip), vehicle: saline with Tween-80", "value": "2 of 6"}
    ]},
    {"smiles": "C#CCn1c(=O)c2cc3ccccc3nc2n(CC#C)c1=O", "values": [
      {"measurement": "survivor count", "setting": "[2]", "value": "6 of 6"}
    ]},
    {"smiles": "O=C(O)/C(=C\\c1c(Cl)n(-c2ccccc2)c2ccccc12)NC(=O)c1ccccc1", "values": [
      {"measurement": "survivor count", "setting": "dose: 400.0 mg/kg/injection, schedule: Q01DX001 (ip), vehicle: saline with Tween-80", "value": "0 of 6"}
    ]},
    {"smiles": "COC1(OC)OC(c2ccc([N+](=O)[O-])cc2)=C(c2ccc([N+](=O)[O-])cc2)OC1(OC)OC", "values": [
      {"measurement": "survivor count", "setting": "dose: 240.0 mg/kg/injection, schedule: Q01DX005 (ip), vehicle: Klucel (hydroxypropylcellulose) (HPC)", "value": "1 of 6"}
    ]}
  ]
}
